The text below walks through data of US20170035863A1 (UNIVERSITY OF LEEDS, priority 2014, published 2017).

The nature of this series: peptide synthesis. To be noted: whole synthesis.

H-DVAEPRMHKTAPPFDFEAIPEEYY(SO3)L-OH: the “purity (crude or final not stated)” value is 95.6%.
